PubChem BioAssay AID1259405 – NCATS | 2018

Aim: 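Knock-downs that lift recombinant protein yield in hamster ovary cells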 (primary screen)
System: Chinese hamster CHO-K1 ovary cells with stable secreted eGFP expression
Reagent: single siRNA against mouse genes, 0.8 pmol siRNA per well (2 µl of 400 nM stock)
Timing: 3 days
Detection: 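Per-well intracellular GFP measured by laser scanning cytometry, plus viability from ATP luminescence, each relative to plate median of non-targeting control wells, in %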
Scale: GFP, % of control: higher = more GFP per well, higher productivity; viability (ATP), % of control: higher = more viable cells (more ATP)
Call rule: 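a knock-down is called active if GFP reaches 120% or more of non-targeting control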
Shown is a random part of about 50,000 reagents tested. Over the whole deposit, about 4,000 (8%) were called active. 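Mouse siRNA library applied to hamster cells; one well for each siRNA.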 The numbers tell different reagents against one gene apart.

The first 7 entries as a preview:
| Gene | reagent no. | GFP, % of control | viability (ATP), % of control | Call |
| --- | --- | --- | --- | --- |
| Gfod2 (glucose-fructose oxidoreductase domain containing 2) | 1 | 54.5 | 49.4 | inactive |
| Gfod2 (glucose-fructose oxidoreductase domain containing 2) | 2 | 88.8 | 75.2 | inactive |
| Gfod2 (glucose-fructose oxidoreductase domain containing 2) | 3 | 111 | 102 | inactive |
| Atl1 (atlastin GTPase 1) | 1 | 105 | 108 | inactive |
| Atl1 (atlastin GTPase 1) | 2 | 72.5 | 87.8 | inactive |
| Atl1 (atlastin GTPase 1) | 3 | 35.4 | 62.6 | inactive |
| Cntn6 (contactin 6) | 1 | 109 | 75.9 | inactive |

The list itself, from the first entry:
| Gene | reagent no. | GFP, % of control | viability (ATP), % of control | Call |
| --- | --- | --- | --- | --- |
| Gfod2 (glucose-fructose oxidoreductase domain containing 2) | 1 | 54.5 | 49.4 | inactive |
| Gfod2 (glucose-fructose oxidoreductase domain containing 2) | 2 | 88.8 | 75.2 | inactive |
| Gfod2 (glucose-fructose oxidoreductase domain containing 2) | 3 | 111 | 102 | inactive |
| Atl1 (atlastin GTPase 1) | 1 | 105 | 108 | inactive |
| Atl1 (atlastin GTPase 1) | 2 | 72.5 | 87.8 | inactive |
| Atl1 (atlastin GTPase 1) | 3 | 35.4 | 62.6 | inactive |
| Cntn6 (contactin 6) | 1 | 109 | 75.9 | inactive |
| Cntn6 (contactin 6) | 2 | 99.9 | 88.4 | inactive |
| Zdhhc19 (zinc finger, DHHC domain containing 19) | 1 | 99.1 | 80.2 | inactive |
| Zdhhc19 (zinc finger, DHHC domain containing 19) | 2 | 58.8 | 69.3 | inactive |
| Zdhhc19 (zinc finger, DHHC domain containing 19) | 3 | 57.4 | 73.3 | inactive |
| Tmem145 (transmembrane protein 145) | 1 | 124 | 77.5 | active |
| Tmem145 (transmembrane protein 145) | 2 | 92.6 | 71.1 | inactive |
| Tmem145 (transmembrane protein 145) | 3 | 139 | 77.3 | active |
| Hnf4aos (hepatic nuclear factor 4 alpha, opposite strand) | 1 | 177 | 154 | active |
| Hnf4aos (hepatic nuclear factor 4 alpha, opposite strand) | 2 | 75 | 79.8 | inactive |
| Hnf4aos (hepatic nuclear factor 4 alpha, opposite strand) | 3 | 104 | 67.2 | inactive |
| Vmn1r71 (vomeronasal 1 receptor 71) | 1 | 97.6 | 62.8 | inactive |
| Vmn1r71 (vomeronasal 1 receptor 71) | 2 | 53.8 | 70.7 | inactive |
| Vmn1r71 (vomeronasal 1 receptor 71) | 3 | 96.6 | 57.5 | inactive |
| Mthfs (5, 10-methenyltetrahydrofolate synthetase) | 1 | 93.4 | 80.7 | inactive |
| Mthfs (5, 10-methenyltetrahydrofolate synthetase) | 2 | 74.4 | 83.8 | inactive |
| Mthfs (5, 10-methenyltetrahydrofolate synthetase) | 3 | 77.1 | 94.6 | inactive |
| Ldah (lipid droplet associated hydrolase) | 1 | 81.4 | 68.6 | inactive |
| Ldah (lipid droplet associated hydrolase) | 2 | 118 | 78.3 | inactive |
| Ldah (lipid droplet associated hydrolase) | 3 | 135 | 90.7 | active |
| Rpf1 (ribosome production factor 1 homolog) | 1 | 59.5 | 61.7 | inactive |
| Rpf1 (ribosome production factor 1 homolog) | 2 | 78 | 60.4 | inactive |
| Rpf1 (ribosome production factor 1 homolog) | 3 | 151 | 82.2 | active |
| Grp (gastrin releasing peptide) | 1 | 58 | 38.1 | inactive |
| Grp (gastrin releasing peptide) | 2 | 50.4 | 71.3 | inactive |
| Grp (gastrin releasing peptide) | 3 | 98.2 | 73.9 | inactive |
| Ifnlr1 (interferon lambda receptor 1) | 1 | 73.3 | 97.9 | inactive |
| Ifnlr1 (interferon lambda receptor 1) | 2 | 116 | 79.3 | inactive |
| Ccdc169 (coiled-coil domain containing 169) | 1 | 72.3 | 61.6 | inactive |
| Ccdc169 (coiled-coil domain containing 169) | 2 | 34.8 | 24.8 | inactive |
| Ccdc169 (coiled-coil domain containing 169) | 3 | 92 | 88.4 | inactive |
| Klhl24 (kelch-like 24) | 1 | 139 | 71.8 | active |
| Klhl24 (kelch-like 24) | 2 | 106 | 63.9 | inactive |
| Klhl24 (kelch-like 24) | 3 | 69.5 | 82.5 | inactive |
| Prss39 (serine protease 39) | 1 | 48.7 | 71.1 | inactive |
| Prss39 (serine protease 39) | 2 | 62.6 | 72.3 | inactive |
| Prss39 (serine protease 39) | 3 | 85.6 | 90 | inactive |
| Chaf1b (chromatin assembly factor 1, subunit B) | 1 | 89.2 | 107 | inactive |
| Chaf1b (chromatin assembly factor 1, subunit B) | 2 | 63.1 | 66.2 | inactive |
| Chaf1b (chromatin assembly factor 1, subunit B) | 3 | 44.7 | 54.2 | inactive |
| Ugcg (UDP-glucose ceramide glucosyltransferase) | 1 | 82.5 | 66.4 | inactive |
| Ugcg (UDP-glucose ceramide glucosyltransferase) | 2 | 90.9 | 68.4 | inactive |
| Ugcg (UDP-glucose ceramide glucosyltransferase) | 3 | 97.4 | 95.5 | inactive |
| Or6c69 (olfactory receptor family 6 subfamily C member 69) | 1 | 37.3 | 47.2 | inactive |
| Or6c69 (olfactory receptor family 6 subfamily C member 69) | 2 | 63.6 | 61.3 | inactive |
| Or6c69 (olfactory receptor family 6 subfamily C member 69) | 3 | 71.3 | 134 | inactive |
| Slc35f2 | 1 | 105 | 96.1 | inactive |
| Slc35f2 | 2 | 74.2 | 68.6 | inactive |
| Slc35f2 | 3 | 94.5 | 85.4 | inactive |
| Dnttip2 (deoxynucleotidyltransferase, terminal, interacting protein 2) | 1 | 77 | 75.4 | inactive |
| Dnttip2 (deoxynucleotidyltransferase, terminal, interacting protein 2) | 2 | 55.2 | 53.1 | inactive |
| Dnttip2 (deoxynucleotidyltransferase, terminal, interacting protein 2) | 3 | 92.5 | 87.5 | inactive |
| Or14c39 (olfactory receptor family 14 subfamily C member 39) | 1 | 126 | 61 | active |
| Or14c39 (olfactory receptor family 14 subfamily C member 39) | 2 | 69.4 | 53.5 | inactive |
| Or14c39 (olfactory receptor family 14 subfamily C member 39) | 3 | 95.3 | 82 | inactive |
| Kpna4 (karyopherin subunit alpha 4) | 1 | 12.3 | 10.5 | inactive |
| Kpna4 (karyopherin subunit alpha 4) | 2 | 82 | 73.5 | inactive |
| Kpna4 (karyopherin subunit alpha 4) | 3 | 103 | 85.3 | inactive |
| Slc25a47 | 1 | 82.9 | 91.5 | inactive |
| Slc25a47 | 2 | 107 | 92.3 | inactive |
| Slc25a47 | 3 | 135 | 79 | active |
| Mcm5 (minichromosome maintenance complex component 5) | 1 | 58.3 | 84.5 | inactive |
| Mcm5 (minichromosome maintenance complex component 5) | 2 | 82.3 | 69.2 | inactive |
| Mcm5 (minichromosome maintenance complex component 5) | 3 | 69.2 | 105 | inactive |
| Mogs (mannosyl-oligosaccharide glucosidase) | 1 | 92.9 | 90.7 | inactive |
| Mogs (mannosyl-oligosaccharide glucosidase) | 2 | 119 | 84.7 | inactive |
| Mogs (mannosyl-oligosaccharide glucosidase) | 3 | 80.5 | 104 | inactive |
| A830019P07Rik (RIKEN cDNA A830019P07 gene) | 1 | 76.4 | 53.2 | inactive |
| A830019P07Rik (RIKEN cDNA A830019P07 gene) | 2 | 77.1 | 71.5 | inactive |
| A830019P07Rik (RIKEN cDNA A830019P07 gene) | 3 | 60.9 | 78 | inactive |
| Srsf1 (serine and arginine-rich splicing factor 1) | 1 | 89.4 | 125 | inactive |
| Srsf1 (serine and arginine-rich splicing factor 1) | 2 | 87.3 | 108 | inactive |
| Vmn1r192 (vomeronasal 1 receptor 192) | 1 | 39.5 | 39 | inactive |
| Vmn1r192 (vomeronasal 1 receptor 192) | 2 | 118 | 51.9 | inactive |
| Vmn1r192 (vomeronasal 1 receptor 192) | 3 | 90.9 | 85.1 | inactive |
| Exosc10 (exosome component 10) | 1 | 63.2 | 78.8 | inactive |
| Exosc10 (exosome component 10) | 2 | 62.6 | 79.5 | inactive |
| Exosc10 (exosome component 10) | 3 | 70.5 | 61.9 | inactive |
| Nutf2 (nuclear transport factor 2) | 1 | 126 | 91.5 | active |
| Nutf2 (nuclear transport factor 2) | 2 | 50 | 70.5 | inactive |
| Nutf2 (nuclear transport factor 2) | 3 | 61.4 | 51.1 | inactive |
| Atpaf1 (ATP synthase mitochondrial F1 complex assembly factor 1) | 1 | 153 | 74.9 | active |
| Atpaf1 (ATP synthase mitochondrial F1 complex assembly factor 1) | 2 | 78.2 | 75.3 | inactive |
| Atpaf1 (ATP synthase mitochondrial F1 complex assembly factor 1) | 3 | 56.4 | 64.9 | inactive |
| Mkrn3 (makorin, ring finger protein, 3) | 1 | 63.5 | 75.2 | inactive |
| Mkrn3 (makorin, ring finger protein, 3) | 2 | 93.7 | 65.2 | inactive |
| Mkrn3 (makorin, ring finger protein, 3) | 3 | 77 | 68.6 | inactive |
| Cggbp1 (CGG triplet repeat binding protein 1) | 1 | 52.3 | 76.8 | inactive |
| Cggbp1 (CGG triplet repeat binding protein 1) | 2 | 54.5 | 82.4 | inactive |
| Cggbp1 (CGG triplet repeat binding protein 1) | 3 | 82.5 | 109 | inactive |
| Hsph1 (heat shock 105kDa/110kDa protein 1) | 1 | 84.2 | 86.9 | inactive |
| Hsph1 (heat shock 105kDa/110kDa protein 1) | 2 | 59.8 | 73.8 | inactive |
| Hsph1 (heat shock 105kDa/110kDa protein 1) | 3 | 115 | 116 | inactive |
| Gnaz (guanine nucleotide binding protein, alpha z subunit) | 1 | 105 | 116 | inactive |
| Gnaz (guanine nucleotide binding protein, alpha z subunit) | 2 | 115 | 96.6 | inactive |
| Gnaz (guanine nucleotide binding protein, alpha z subunit) | 3 | 73 | 63.4 | inactive |
| D1Pas1 (DNA segment, Chr 1, Pasteur Institute 1) | 1 | 78.9 | 80.1 | inactive |
| D1Pas1 (DNA segment, Chr 1, Pasteur Institute 1) | 2 | 113 | 97.4 | inactive |
| D1Pas1 (DNA segment, Chr 1, Pasteur Institute 1) | 3 | 82.5 | 89.7 | inactive |
| Timm9 (translocase of inner mitochondrial membrane 9) | 1 | 135 | 122 | active |
| Timm9 (translocase of inner mitochondrial membrane 9) | 2 | 130 | 133 | active |
| Timm9 (translocase of inner mitochondrial membrane 9) | 3 | 146 | 82.2 | active |
